Results are given in words; binding and its absence hold for the method and conditions named. Binding seen in cells or lysates may run through a third protein. Some results given as binding are weak or reduced against the parent protein; the word gives no strength.
Columns and labels:
[1] = biological target: Karyopherin beta2 (Kapβ2), full length, wild type (human) (UniProt Q92973); assay: GST pull-down, Coomassie Blue (FIG. 6C)
[2] = biological target: Karyopherin beta2 (Kapβ2), full length, wild type (human) (UniProt Q92973); assay: GST pull-down (FIG. 6E)
Kapβ2 W460A/W730A = biological target: T1, Kapβ2 W460A/W730A; assay: pull-down: Kapβ2 mutant added to immobilized GST-NLS, SDS-PAGE, stained gel
T1 sequence: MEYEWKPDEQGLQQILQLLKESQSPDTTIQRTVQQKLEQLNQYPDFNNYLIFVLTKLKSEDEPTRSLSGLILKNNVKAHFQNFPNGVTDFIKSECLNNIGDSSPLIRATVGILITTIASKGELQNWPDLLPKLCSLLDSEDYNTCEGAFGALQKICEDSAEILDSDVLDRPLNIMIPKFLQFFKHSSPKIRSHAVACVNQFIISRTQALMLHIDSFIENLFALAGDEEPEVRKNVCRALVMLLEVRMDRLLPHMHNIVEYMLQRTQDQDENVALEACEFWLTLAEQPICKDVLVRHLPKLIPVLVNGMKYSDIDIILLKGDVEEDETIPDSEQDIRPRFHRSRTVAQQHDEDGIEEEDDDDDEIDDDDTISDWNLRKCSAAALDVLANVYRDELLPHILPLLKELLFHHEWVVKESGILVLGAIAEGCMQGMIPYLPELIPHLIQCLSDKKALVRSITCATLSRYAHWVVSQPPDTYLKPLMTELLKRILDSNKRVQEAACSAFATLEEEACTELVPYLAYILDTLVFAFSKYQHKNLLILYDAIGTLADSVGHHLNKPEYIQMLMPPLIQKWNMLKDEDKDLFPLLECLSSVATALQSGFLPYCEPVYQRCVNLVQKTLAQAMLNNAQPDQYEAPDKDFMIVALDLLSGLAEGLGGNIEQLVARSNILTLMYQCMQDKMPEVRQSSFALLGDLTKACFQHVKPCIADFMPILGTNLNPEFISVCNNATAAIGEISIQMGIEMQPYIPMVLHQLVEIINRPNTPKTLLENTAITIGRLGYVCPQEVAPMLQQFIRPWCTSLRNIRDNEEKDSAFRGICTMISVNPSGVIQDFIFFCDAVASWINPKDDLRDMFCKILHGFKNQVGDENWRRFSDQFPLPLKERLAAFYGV

By UniProt entry, the sequences of proteins in these tests, tags left out. Residues count along the entry.
UniProt O95416: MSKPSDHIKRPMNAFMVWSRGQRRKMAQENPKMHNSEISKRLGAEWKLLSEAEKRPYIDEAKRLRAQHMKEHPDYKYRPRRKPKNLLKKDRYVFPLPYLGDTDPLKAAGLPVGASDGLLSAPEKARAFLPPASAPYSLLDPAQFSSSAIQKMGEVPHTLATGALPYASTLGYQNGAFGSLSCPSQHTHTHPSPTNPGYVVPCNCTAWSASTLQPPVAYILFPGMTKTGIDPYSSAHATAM
UniProt Q07666, residues 410-443: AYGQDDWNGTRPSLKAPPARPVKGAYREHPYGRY
UniProt O94992, residues 140-170: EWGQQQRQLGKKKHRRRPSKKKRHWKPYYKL
UniProt P49761: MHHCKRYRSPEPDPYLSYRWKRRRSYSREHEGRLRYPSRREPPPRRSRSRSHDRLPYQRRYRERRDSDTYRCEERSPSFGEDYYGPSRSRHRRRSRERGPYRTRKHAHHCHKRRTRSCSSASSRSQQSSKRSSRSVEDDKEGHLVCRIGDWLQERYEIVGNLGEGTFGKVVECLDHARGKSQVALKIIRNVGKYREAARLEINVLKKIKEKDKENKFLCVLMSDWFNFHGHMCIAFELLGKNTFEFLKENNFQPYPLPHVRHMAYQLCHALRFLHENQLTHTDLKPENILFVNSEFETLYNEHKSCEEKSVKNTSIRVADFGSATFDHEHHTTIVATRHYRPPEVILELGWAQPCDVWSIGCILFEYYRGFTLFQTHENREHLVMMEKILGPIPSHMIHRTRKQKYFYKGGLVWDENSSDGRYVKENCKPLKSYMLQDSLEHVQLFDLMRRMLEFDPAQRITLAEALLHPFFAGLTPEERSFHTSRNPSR
UniProt P67809, residues 171-207: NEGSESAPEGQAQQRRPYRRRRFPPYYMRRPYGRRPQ

Row | Substance | binding [1] | binding [2] | other results
1 | GST-Sox14, full length (from UniProt O95416 1-240) | – | binds | –
2 | GST-NLS of SAM68 (from UniProt Q07666 410-443) | binds | – | –
3 | GST-hnRNP A1-NLS (GST-fusion of hnRNP A1 residues 257-305) (from UniProt P09651 257-305) | – | – | binding (Kapβ2 W460A/W730A): binds

More lines, main results first:

Row | binding [1] | binding [2] | Substance | other results
4 | binds | – | GST-NLS of HMBA-inducible protein (from UniProt O94992 140-170) | –
5 | – | binds | GST-Clk3, full length (from UniProt P49761 1-490) | –
6 | binds | – | GST-NLS of Y-box binding protein 1 (YBP1) (from UniProt P67809 171-207) | –

— patent publication US20080015137A1
